Experimental data taken from patent publication US20250283871A1, “COMPOSITIONS AND METHODS FOR MODULATING THE INTERACTION BETWEEN SS18-SSX FUSION ONCOPROTEIN AND NUCLEOSOMES” (Dana-Farber Cancer Institute, Inc., priority 2020, published 2025).

B1: SRSF5 (protein, UniProt Q13243 1-272, looked up)
Serine/arginine-rich splicing …: MSGCRVFIGRLNPAAREKDVERFFKGYGRIRDIDLKRGFGFVEFEDPRDADDAVYELDGKELCSERVTIEHARARSRGGRGRGRYSDRFSSRRPRNDRRNAPPVRTENRLIVENLSSRVSWQDLKDFMRQAGEVTFADAHRPKLNEGVVEFASYGDLKNAIEKLSGKEINGRKIKLIEGSKRHSRSRSRSRSRTRSSSRSRSRSRSRSRKSYSRSRSRSRSRSRSKSRSVSRSPVPEKSQKRGSSSRSKSPASVDRQRSRSRSRSRSVDSGN
B2: SMARCA1 (protein, UniProt P28370 1-1042, looked up)
SWI/SNF-related …: MEQDTAAVAATVAAADATATIVVIEDEQPGPSTSQEEGAAAAATEATAATEKGEKKKEKNVSSFQLKLAAKAPKSEKEMDPEYEEKMKADRAKRFEFLLKQTELFAHFIQPSAQKSPTSPLNMKLGRPRIKKDEKQSLISAGDYRHRRTEQEEDEELLSESRKTSNVCIRFEVSPSYVKGGPLRDYQIRGLNWLISLYENGVNGILADEMGLGKTLQTIALLGYLKHYRNIPGPHMVLVPKSTLHNWMNEFKRWVPSLRVICFVGDKDARAAFIRDEMMPGEWDVCVTSYEMVIKEKSVFKKFHWRYLVIDEAHRIKNEKSKLSEIVREFKSTNRLLLTGTPLQNNLHELWALLNFLLPDVFNSADDFDSWFDTKNCLGDQKLVERLHAVLKPFLLRRIKTDVEKSLPPKKEIKIYLGLSKMQREWYTKILMKDIDVLNSSGKMDKMRLLNILMQLRKCCNHPYLFDGAEPGPPYTTDEHIVSNSGKMVVLDKLLAKLKEQGSRVLIFSQMTRLLDILEDYCMWRGYEYCRLDGQTPHEEREEAIEAFNAPNSSKFIFMLSTRAGGLGINLASADVVILYDSDWNPQVDLQAMDRAHRIGQKKPVRVFRLITDNTVEERIVERAEIKLRLDSIVIQQGRLIDQQSNKLAKEEMLQMIRHGATHVFASKESELTDEDITTILERGEKKTAEMNERLQKMGESSLRNFRMDIEQSLYKFEGEDYREKQKLGMVEWIEPPKRERKANYAVDAYFREALRVSEPKIPKAPRPPKQPNVQDFQFFPPRLFELLEKEILYYRKTIGYKVPRNPDIPNPALAQREEQKKIDGAEPLTPEETEEKEKLLTQGFTNWTKRDFNQFIKANEKYGRDDIDNIAREVEGKSPEEVMEYSAVFWERCNELQDIEKIMAQIERGEARIQRRISIKKALDAKIARYKAPFHQLRIQYGTSKGKNYTEEEDRFLICMLHKMGFDRENVYEELRQCVRNAPQFRFDWFIKSRTAMEFQRRCNTLISLIEKENMEIEERERAEKKKRATKTPMVKFSAFS
B3: WDR75 (protein, UniProt Q8IWA0 1-830, looked up)
WD repeat-containing protein …: MVEEENIRVVRCGGSELNFRRAVFSADSKYIFCVSGDFVKVYSTVTEECVHILHGHRNLVTGIQLNPNNHLQLYSCSLDGTIKLWDYIDGILIKTFIVGCKLHALFTLAQAEDSVFVIVNKEKPDIFQLVSVKLPKSSSQEVEAKELSFVLDYINQSPKCIAFGNEGVYVAAVREFYLSVYFFKKKTTSRFTLSSSRNKKHAKNNFTCVACHPTEDCIASGHMDGKIRLWRNFYDDKKYTYTCLHWHHDMVMDLAFSVTGTSLLSGGRESVLVEWRDATEKNKEFLPRLGATIEHISVSPAGDLFCTSHSDNKIIIIHRNLEASAVIQGLVKDRSIFTGLMIDPRTKALVLNGKPGHLQFYSLQSDKQLYNLDIIQQEYINDYGLIQIELTKAAFGCFGNWLATVEQRQEKETELELQMKLWMYNKKTQGFILNTKINMPHEDCITALCFCNAEKSEQPTLVTASKDGYFKVWILTDDSDIYKKAVGWTCDFVGSYHKYQATNCCFSEDGSLLAVSFEEIVTIWDSVTWELKCTFCQRAGKIRHLCFGRLTCSKYLLGATENGILCCWNLLSCALEWNAKLNVRVMEPDPNSENIAAISQSSVGSDLFVFKPSEPRPLYIQKGISREKVQWGVFVPRDVPESFTSEAYQWLNRSQFYFLTKSQSLLTFSTKSPEEKLTPTSKQLLAEESLPTTPFYFILGKHRQQQDEKLNETLENELVQLPLTENIPAISELLHTPAHVLPSAAFLCSMFVNSLLLSKETKSAKEIPEDVDMEEEKESEDSDEENDFTEKVQDTSNTGLGEDIIHQLSKSEEKELRKFRKIDYSWIAAL
B4: SRSF7 (protein, UniProt Q16629 1-238, looked up)
Serine/arginine-rich splicing …: MSRYGRYGGETKVYVGNLGTGAGKGELERAFSYYGPLRTVWIARNPPGFAFVEFEDPRDAEDAVRGLDGKVICGSRVRVELSTGMPRRSRFDRPPARRPFDPNDRCYECGEKGHYAYDCHRYSRRRRSRSRSRSHSRSRGRRYSRSRSRSRGRRSRSASPRRSRSISLRRSRSASLRRSRSGSIKGSRYFQSPSRSRSRSRSISRPRSSRSKSRSPSPKRSRSPSGSPRRSASPERMD
B5: RALY (protein, UniProt Q9UKM9 2-306, looked up)
RNA-binding protein Raly: SLKLQASNVTNKNDPKSINSRVFIGNLNTALVKKSDVETIFSKYGRVAGCSVHKGYAFVQYSNERHARAAVLGENGRVLAGQTLDINMAGEPKPDRPKGLKRAASAIYSGYIFDYDYYRDDFYDRLFDYRGRLSPVPVPRAVPVKRPRVTVPLVRRVKTNVPVKLFARSTAVTTSSAKIKLKSSELQAIKTELTQIKSNIDALLSRLEQIAAEQKANPDGKKKGDGGGAGGGGGGGGSGGGGSGGGGGGGSSRPPAPQENTTSEAGLPQGEARTRDDGDEEGLLTHSEEELEHSQDTDADDGALQ
B6: CDC5L (protein, UniProt Q99459 1-802, looked up)
Cell division cycle 5-like …: MPRIMIKGGVWRNTEDEILKAAVMKYGKNQWSRIASLLHRKSAKQCKARWYEWLDPSIKKTEWSREEEEKLLHLAKLMPTQWRTIAPIIGRTAAQCLEHYEFLLDKAAQRDNEEETTDDPRKLKPGEIDPNPETKPARPDPIDMDEDELEMLSEARARLANTQGKKAKRKAREKQLEEARRLAALQKRRELRAAGIEIQKKRKRKRGVDYNAEIPFEKKPALGFYDTSEENYQALDADFRKLRQQDLDGELRSEKEGRDRKKDKQHLKRKKESDLPSAILQTSGVSEFTKKRSKLVLPAPQISDAELQEVVKVGQASEIARQTAEESGITNSASSTLLSEYNVTNNSVALRTPRTPASQDRILQEAQNLMALTNVDTPLKGGLNTPLHESDFSGVTPQRQVVQTPNTVLSTPFRTPSNGAEGLTPRSGTTPKPVINSTPGRTPLRDKLNINPEDGMADYSDPSYVKQMERESREHLRLGLLGLPAPKNDFEIVLPENAEKELEEREIDDTYIEDAADVDARKQAIRDAERVKEMKRMHKAVQKDLPRPSEVNETILRPLNVEPPLTDLQKSEELIKKEMITMLHYDLLHHPYEPSGNKKGKTVGFGTNNSEHITYLEHNPYEKFSKEELKKAQDVLVQEMEVVKQGMSHGELSSEAYNQVWEECYSQVLYLPGQSRYTRANLASKKDRIESLEKRLEINRGHMTTEAKRAAKMEKKMKILLGGYQSRAMGLMKQLNDLWDQIEQAHLELRTFEELKKHEDSAIPRRLECLKEDVQRQQEREKELQHRYADLLLEKETLKSKF
B7: MPHOSPH8 (protein, UniProt Q99549 1-860, looked up)
M-phase phosphoprotein 8: MEQVAEGARVTAVPVSAADSTEELAEVEEGVGVVGEDNDAAARGAEAFGDSEEDGEDVFEVEKILDMKTEGGKVLYKVRWKGYTSDDDTWEPEIHLEDCKEVLLEFRKKIAENKAKAVRKDIQRLSLNNDIFEANSDSDQQSETKEDTSPKKKKKKLRQREEKSPDDLKKKKAKAGKLKDKSKPDLESSLESLVFDLRTKKRISEAKEELKESKKPKKDEVKETKELKKVKKGEIRDLKTKTREDPKENRKTKKEKFVESQVESESSVLNDSPFPEDDSEGLHSDSREEKQNTKSARERAGQDMGLEHGFEKPLDSAMSAEEDTDVRGRRKKKTPRKAEDTRENRKLENKNAFLEKKTVPKKQRNQDRSKSAAELEKLMPVSAQTPKGRRLSGEERGLWSTDSAEEDKETKRNESKEKYQKRHDSDKEEKGRKEPKGLKTLKEIRNAFDLFKLTPEEKNDVSENNRKREEIPLDFKTIDDHKTKENKQSLKERRNTRDETDTWAYIAAEGDQEVLDSVCQADENSDGRQQILSLGMDLQLEWMKLEDFQKHLDGKDENFAATDAIPSNVLRDAVKNGDYITVKVALNSNEEYNLDQEDSSGMTLVMLAAAGGQDDLLRLLITKGAKVNGRQKNGTTALIHAAEKNFLTTVAILLEAGAFVNVQQSNGETALMKACKRGNSDIVRLVIECGADCNILSKHQNSALHFAKQSNNVLVYDLLKNHLETLSRVAEETIKDYFEARLALLEPVFPIACHRLCEGPDFSTDFNYKPPQNIPEGSGILLFIFHANFLGKEVIARLCGPCSVQAVVLNDKFQLPVFLDSHFVYSFSPVAGPNKLFIRLTEAPSAKVKLLIGAYRVQLQ

tested on: BAF complex subunits and histone proteins; assay: Mass spectrometry proteomics of purified HA-SS18 WT and HA-SS18-SSX1 complexes (Tables 5A-5E); design: species or system human; conditions: HA-SS18SSX1_CHR_peptides: protein identified in the HA-SS18-SSX1 purification from solubilized chromatin (CHR), HEK-293T

Point of comparison: B7, “Total (total peptides)” value 11. Against it:
- B1 — the same, 11
- B2 — the same, 11
- B3 — lower, 10
- B4 — the same, 11
- B5 — the same, 11
- B6 — lower, 10

Point of comparison: B2, “Unique (unique peptides)” value 11. Against it:
- B1 — lower, 7
- B3 — lower, 10
- B4 — lower, 6
- B5 — lower, 10
- B6 — lower, 10
- B7 — lower, 10

same assay, conditions: HA-SS18SSX1_CHR_peptides; total peptides of the identified protein

B5 showed a Total of 1.

same assay, conditions: HA-SS18SSX1_CHR_peptides; unique peptides of the identified protein

B5 was tested, and the Unique was 1.

same assay, conditions: HA-SS18SSX1_NE_peptides: protein co-purified with HA-SS18-SSX1 BAF complexes from soluble nuclear extract (NE), HEK-293T cells

Point of comparison: B6, “Total (peptides)” value 2. Against it:
- B2 — the same, 2

Point of comparison: B6, “Unique (peptides)” value 2. Against it:
- B2 — the same, 2

same assay, conditions: HA-SS18WT_CHR_peptides: HA-SS18 WT purification from nuclease-treated solubilized chromatin (CHR), HEK-293T; label = protein identified

Point of comparison: B5, “Total (peptides)” value 6. Against it:
- B2 — higher, 7
- B3 — higher, 7
- B4 — the same, 6
- B6 — higher, 9
- B7 — lower, 5

Point of comparison: B6, “Unique (peptides)” value 9. Against it:
- B2 — lower, 7
- B3 — lower, 7
- B4 — lower, 4
- B5 — lower, 6
- B7 — lower, 5

same assay, conditions: HA-SS18WT_CHR_peptides: protein identified in HA-SS18 WT BAF complex purification from nuclease-treated solubilized chromatin (CHR), HEK-293T

In the case of B1, the “Total (total peptides)” value is reported as 1.

With B1 the “Unique (unique peptides)” value was 1.
